Drawing on PMC3365040, this text covers binding for one molecule.

The chains behind the UniProt entries cited, without tags or fusion partners. Where a name states a change or a piece, a line headed by the entry shows the natural chain unless it says otherwise.
UniProt P19338: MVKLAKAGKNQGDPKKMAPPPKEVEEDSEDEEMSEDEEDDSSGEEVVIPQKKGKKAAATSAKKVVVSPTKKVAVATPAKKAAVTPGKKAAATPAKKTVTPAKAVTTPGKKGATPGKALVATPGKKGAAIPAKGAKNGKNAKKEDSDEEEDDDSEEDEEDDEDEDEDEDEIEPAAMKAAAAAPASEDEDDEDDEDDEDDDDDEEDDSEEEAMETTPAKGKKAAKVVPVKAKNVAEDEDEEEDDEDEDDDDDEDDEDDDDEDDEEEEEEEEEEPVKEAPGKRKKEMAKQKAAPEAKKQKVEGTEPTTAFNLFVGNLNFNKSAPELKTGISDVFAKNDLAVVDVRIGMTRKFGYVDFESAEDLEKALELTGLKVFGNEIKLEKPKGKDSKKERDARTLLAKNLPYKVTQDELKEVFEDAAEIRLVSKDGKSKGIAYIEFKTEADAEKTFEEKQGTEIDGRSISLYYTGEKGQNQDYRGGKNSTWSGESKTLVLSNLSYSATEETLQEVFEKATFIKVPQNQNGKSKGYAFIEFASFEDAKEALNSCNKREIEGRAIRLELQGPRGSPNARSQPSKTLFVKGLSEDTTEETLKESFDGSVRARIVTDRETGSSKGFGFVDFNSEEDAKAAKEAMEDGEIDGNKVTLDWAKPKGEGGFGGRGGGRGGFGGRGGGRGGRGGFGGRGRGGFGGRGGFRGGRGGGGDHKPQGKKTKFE

No constants are given. Whether binding was seen depends on the method and setting. In cells and extracts the contact can be indirect. Some binding calls cover weakened binding; strength is not graded here.

For this assay, the target named is Nucleolin Protein C23 (endogenous) (human (endogenous in MCF-7 and T47D)) (UniProt P19338). Briefly: co-IP; endogenous proteins; nuclear extract of MCF-7 cells; IP with COUP-TFII polyclonal antibody or nucleolin monoclonal antibody on magnetic beads in RIPA buffer, 4 h at 4°C; western blot; untreated cells, also cells treated with 10 µM CRO or AS1411 for 24 h, or with EtOH, 10 nM E2 or 100 nM 4-OHT for 1 h.

B1: Endogenous COUP-TFII (protein, UniProt P24468 1-414)
chain: MAMVVSTWRDPQDEVPGSQGSQASQAPPVPGPPPGAPHTPQTPGQGGPASTPAQTAAGGQGGPGGPGSDKQQQQQHIECVVCGDKSSGKHYGQFTCEGCKSFFKRSVRRNLSYTCRANRNCPIDQHHRNQCQYCRLKKCLKVGMRREAVQRGRMPPTQPTHGQFALTNGDPLNCHSYLSGYISLLLRAEPYPTSRFGSQCMQPNNIMGIENICELAARMLFSAVEWARNIPFFPDLQITDQVALLRLTWSELFVLNAAQCSMPLHVAPLLAAAGLHASPMSADRVVAFMDHIRIFQEQVEKLKALHVDSAEYSCLKAIVLFTSDACGLSDVAHVESLQEKSQCALEEYVRSQYPNQPTRFGKLLLRLPSLRTVSSSVIEQLFFVRLVGKTPIETLIRDMLLSGSSFNWPYMAIQ
As for B1, the binding entry is “binds”.
